Assay results reported in patent US20110268789A1, “USE OF PITUITARY ADENYLATE CYCLASE-ACTIVATING POLYPEPTIDE (PACAP) AND PACAP ANALOGS AS ADJUNCTIVE TREATMENTS WITH ANTICANCER AGENTS” (priority 2008, published 2011).
Some entries share one result that the patent states for a list of compounds.

What was measured:
Format in all cases: cell-based
[1] = system: MCF-7 human breast cancer cells; test: Doxorubicin-induced apoptotic cell death of breast cancer cells; conditions: MCF-7 cells, highest dose tested (10^−6 M)
Procedure: The MCF-7 human breast cancer cells were cultured in Eagle's Minimum Essential Medium supplemented with 10% non-inactivated fetal bovine serum and 0.05 mM 2-mercaptoethanol. The effects of PACAP38 and N-acetyl[Ala^16,17,D-Lys^38]PACAP38 on apoptotic cell death were assessed by the quantitative determination of cytoplasmic histone-associated DNA-fragmentation (mono- and oligonucleosomes) after exposure to doxorubicin for 48 hours. Each value represents the mean plus/minus the standard deviation of three determinations. **p<0.01 compared to the doxorubicin-treated (control) cells.
At the highest dose tested (10^−6 M), both peptides reduced the apoptotic cell death of these breast cancer cells by more than 50%.

HK-2 human kidney cells = test: Doxorubicin-induced apoptotic cell death of human renal proximal tubule epithelial cells; conditions: HK-2 cells, highest dose tested (10^−6 M)
Procedure: The HK-2 human kidney cells were cultured in Keratinocyte-Serum Free Medium supplemented with recombinant epidermal growth factor and bovine pituitary extract. […] Each value represents the mean plus/minus the standard deviation of four determinations in three replicate experiments. **p<0.01 and *p<0.05 compared to the doxorubicin-treated (control) cells.
At the highest dose tested (10^−6 M), all three peptides reduced the apoptotic cell death of these epithelial cells by more than 60%.

L-132 human lung cells = test: Bleomycin-induced apoptotic cell death of human pulmonary epithelial cells; conditions: L-132 cells, highest dose tested (10^−6 M)
Procedure: The L-132 human lung cells were cultured in Eagle's Minimum Essential Medium supplemented with 10% fetal bovine serum. […] Each value represents the mean plus/minus the standard deviation of four determinations in three replicate experiments. **p<0.01 and *p<0.05 compared to the bleomycin-treated (control) cells.
At the highest dose tested (10^−6 M), all three peptides reduced the apoptotic cell death of these epithelial cells by more than 60%. […] Therefore, pre- and/or post-treatment of subjects undergoing bleomycin-based cancer chemotherapy with therapeutic doses of PACAP38 and/or PACAP analogs should result in a higher maximal tolerable dose of bleomycin, and an increased frequency of partial clinical responses and/or an increased number of complete remissions.

[2] = system: light-chain immunoglobulin-secreting human myeloma cells; test: Myeloma cell proliferation (bromodeoxyuridine incorporation); conditions: 24-hour incubation, FIG. 2, read-out: concentration giving 50% inhibition of the rate of proliferation

Substance: N-acetyl[Ala^16,17,D-Lys^38]PACAP38
- reduction of doxorubicin-induced apoptotic cell death [1]: more than 50%

Substance: PACAP38
- reduction of doxorubicin-induced apoptotic cell death (HK-2 human kidney cells): more than 60%
- reduction of doxorubicin-induced apoptotic cell death [1]: more than 50%
- reduction of bleomycin-induced apoptotic cell death (L-132 human lung cells): more than 60%
- IC50 [2]: < 0.1 nM

Substance: [Aib^2]PACAP38
- IC50 [2]: < 0.1 nM

Substance: [Lys^34]PACAP38 (HSDGIFTDSYSRYRKQMAVKKYLAAVLGKRYKQKVKNK)
- reduction of doxorubicin-induced apoptotic cell death (HK-2 human kidney cells): more than 60%
- reduction of bleomycin-induced apoptotic cell death (L-132 human lung cells): more than 60%
